The source of these data is paper PMC7737610.

Protein sequences, listed by entry. Tags and fused reporters are not part of them.
UniProt P10155: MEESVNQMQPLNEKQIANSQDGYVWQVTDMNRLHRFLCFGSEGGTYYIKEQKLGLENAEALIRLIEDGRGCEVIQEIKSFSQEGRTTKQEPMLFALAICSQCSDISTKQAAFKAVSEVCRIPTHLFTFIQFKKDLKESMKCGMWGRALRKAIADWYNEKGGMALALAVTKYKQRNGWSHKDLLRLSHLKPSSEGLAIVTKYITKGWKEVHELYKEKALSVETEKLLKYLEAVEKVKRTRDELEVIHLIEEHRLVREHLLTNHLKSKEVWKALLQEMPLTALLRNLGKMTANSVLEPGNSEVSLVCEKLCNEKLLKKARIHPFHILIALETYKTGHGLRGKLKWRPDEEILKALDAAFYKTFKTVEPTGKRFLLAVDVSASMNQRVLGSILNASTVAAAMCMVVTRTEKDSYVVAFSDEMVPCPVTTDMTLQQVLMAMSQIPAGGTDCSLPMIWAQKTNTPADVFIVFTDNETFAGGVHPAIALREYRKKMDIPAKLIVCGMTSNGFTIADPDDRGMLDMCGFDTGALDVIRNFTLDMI

In this experiment the target is T1, tf-NBR1 (tandem-fluorescent RFP-GFP fusion of NBR1) (UniProt Q14596).
T1 sequence: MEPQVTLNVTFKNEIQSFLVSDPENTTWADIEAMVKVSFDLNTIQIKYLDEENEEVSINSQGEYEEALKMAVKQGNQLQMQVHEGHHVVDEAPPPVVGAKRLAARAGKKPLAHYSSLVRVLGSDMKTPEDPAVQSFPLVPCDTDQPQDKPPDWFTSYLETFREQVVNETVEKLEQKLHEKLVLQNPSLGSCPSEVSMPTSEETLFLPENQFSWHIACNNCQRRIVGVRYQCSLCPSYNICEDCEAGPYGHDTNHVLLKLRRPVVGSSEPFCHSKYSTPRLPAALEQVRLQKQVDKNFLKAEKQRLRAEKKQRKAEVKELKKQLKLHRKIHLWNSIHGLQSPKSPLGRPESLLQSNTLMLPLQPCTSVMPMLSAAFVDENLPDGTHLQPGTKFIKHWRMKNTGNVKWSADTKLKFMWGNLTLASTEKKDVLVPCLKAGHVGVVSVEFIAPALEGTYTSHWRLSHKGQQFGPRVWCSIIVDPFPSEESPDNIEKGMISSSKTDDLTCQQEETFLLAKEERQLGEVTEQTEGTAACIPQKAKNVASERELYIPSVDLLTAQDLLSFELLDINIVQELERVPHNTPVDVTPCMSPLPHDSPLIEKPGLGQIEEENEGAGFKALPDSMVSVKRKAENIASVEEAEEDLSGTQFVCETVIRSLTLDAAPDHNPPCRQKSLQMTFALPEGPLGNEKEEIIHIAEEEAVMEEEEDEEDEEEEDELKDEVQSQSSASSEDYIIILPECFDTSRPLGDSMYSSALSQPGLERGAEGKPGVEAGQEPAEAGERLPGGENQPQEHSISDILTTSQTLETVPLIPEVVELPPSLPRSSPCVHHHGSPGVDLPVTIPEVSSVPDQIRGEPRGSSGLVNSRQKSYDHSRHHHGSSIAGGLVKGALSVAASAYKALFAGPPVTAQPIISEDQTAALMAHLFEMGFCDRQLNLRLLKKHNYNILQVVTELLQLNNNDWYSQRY
The experiment in a line: affinity purification with mass spectrometry; tf-NBR1 co-immunoprecipitate analysed by label-free quantitative LC-MS/MS (iBAQ), fold-enrichment.

These are yes or no findings as the source states them, for the method shown. In cells and extracts the contact can be indirect. Here binding means that the protein was enriched with, or labelled near, the bait; the list need not be complete. Where a sequence is shown, tags or fusion partners need not be part of it.

Turning to “TAX1BP1, endogenous (from UniProt Q86VP1-1 1-789)”, the binding result is given as “binds”.

For the substance “TROVE2, endogenous (from UniProt P10155 1-538)”, the binding entry is reported as “binds”.
